From US20240374745A1 come the findings set out here.

These are yes or no findings as the source states them, for the method shown. Some results given as binding are weak or reduced against the parent protein; the word gives no strength.

The target in the test is Recombinant LRP1 (residues 20-974), StrepII-tagged fusion with the human IgG1 Fc region. The test can be described thus: affinity depletion on LRP1-conjugated resin, read by pore-limited native PAGE.

B1: A2M TR S1, non-native component (protein)
chain: SVSGKPQYMVLVPSLLHTETTEKGCVLLSYLNETVTVSASLESVRGNRSLFTDLEAENDVLHCVAFAVPKSSSNEEVMFLTVQVKGPTQEFKKRTTVMVKNEDSLVFVQTDKSIYKPGQTVKFRVVSMDENFHPLNELIPLVYIQDPKGNRIAQWQSFQLEGGLKQFSFPLSSEPFQGSYKVVVQKKSGGRTEHPFTVEEFVLPKFEVQVTVPKIITILEEEMNVSVCGLYTYGKPVPGHVTVSICRKYSDASDCHGEDSQAFCEKFSGQLNSHGCFYQQVKTKVFQLKRKEYEMKLHTEAQIQEEGTVVELTGRQSSEITRTITKLSFVKVDSHFRQGIPFFGQVRLVDGKGVPIPNKVIFIRGNEANYYSNATTDEHGLVQFSINTTNVMGTSLTVRVNYKDRSPCYGYQWVSEEHEEAHHTAYLVFSPSKSFVHLEPMSHELPCGHTQTVQAHYILNGGTLLGLKKLSFYYLIMAKGGIVRTGTHGLLVKQEDMKGHFSISIPVKSDIAPVARLLIYAVLPTGDVIGDSAKYDVENCLANKVDLSFSPSQSLPASHAHLRVTAAPQSVCALRAVDQSVLLMKPDAELSASSVYNLLPEKDLTGFPGPLNDQDDEDCINRHNVYINGITYTPVSSTNEKDMYSFLEDMGLKAFTNSKIRKPKMCGGSGGSGGSGGSGGGGSPQGIAGQGGSGGSGGSGGSGGSETVRKYFPETWIWDLVVVNSAGVAEVGVTVPDTITEWKAGAFCLSEDAGLGISSTASLRAFQPFFVELTMPYSVIRGEAFTLKATVLNYLPKCIRVSVQLEASPAFLAVPVEKEQAPHCICANGRQTVSWAVTPKSLGNVNFTVSAEALESQELCGTEVPSVPEHGRKDTVIKPLLVEPEGLEKETTFNSLLCPSGGEVSEELSLKLPPNVVEESARASVSVLGDILGSAMQNTQNLLQMPYGCGEQNMVLFAPNIYVLDYLNETQQLTPEVKSKAIGYLNTGYQRQLNYKHYDGSYSTFGERYGRNQGNTWLTAFVLKTFAQARAYIFIDEAHITQALIWLSQRQKDNGCFRSSGSLLNNAIKGGVEDEVTLSAYITIALLEIPLTVTHPVVRNALFCLESAWKTAQEGDHGSHVYTKALLAYAFALAGNQDKRKEVLKSLNEEAVKKDNSVHWERPQKPKAPVGHFYEPQAPSAEVEMTSYVLLAYLTAQPAPTSEDLTSATNIVKWITKQQNAQGGFSSTQDTVVALHALSKYGAATFTRTGKAAQVTIQSSGTFSSKFQVDNNNRLLLQQVSLPELPGEYSMKVTGEGCVYLQTSLKYNILPEKEEFPFALGVQTLPQTCDEPKAHTSFQISLSVSYTGSRSASNMAIVDVKMVSGFIPLKPTVKMLERSNHVSRTEVSSNHVLIYLDKVSNQTLSLFFTVLQDVPVRDLKPAIVKVYDYYETDEFAIAEYNAPCSKDLGNA
Regarding B1, the binding entry is “binds”.
